Source: paper PMC9166773, “Latrophilin-2 is a novel receptor of LRG1 that rescues vascular and neurological abnormalities and restores diabetic erectile function” (Experimental & Molecular Medicine, 2022)
Results are given in words; binding and its absence hold for the method and conditions named. Tags and fused reporters may be left off the sequences shown.

Experiments:
[1] = biological target: Lec/Olf domain of LPHN3; assay: solid-phase binding assay; LRG1 and recombinant extracellular domains of LPHN2 (and Lec/Olf of LPHN1, LPHN3); who was immobilised and conditions not told in the text shown; both purified
[2] = biological target: Lec/Olf domain of LPHN1; assay: as above

binding [1]: no binding
binding [2]: no binding
B1: Leucine-rich alpha-2-glycoprotein 1 (LRG1), recombinant tag-free human LRG1 (ligand, UniProt P02750 36-347, looked up)
chain: VTLSPKDCQVFRSDHGSSISCQPPAEIPGYLPADTVHLAVEFFNLTHLPANLLQGASKLQELHLSSNGLESLSPEFLRPVPQLRVLDLTRNALTGLPPGLFQASATLDTLVLKENQLEVLEVSWLHGLKALGHLDLSGNRLRKLPPGLLANFTLLRTLDLGENQLETLPPDLLRGPLQLERLHLEGNKLQVLGKDLLLPQPDLRYLFLNGNKLARVAAGAFQGLRQLDMLDLSNNSLASVPEGLWASLGQPNWDMRDGFDISGNPWICDQNLSDLYRWLQAQKDKMFSQNDTRCAGPEAVKGQTLLAVAKSQ
notes: human LRG1, residues V36-Q347; In the TriCEPS capture LRG1 was coupled to the TriCEPS reagent; Residues of the thrombin site may remain after cleavage; also called recombinant LRG1; soluble LRG1; not shown: Fc (human IgG), C-terminal, cleaved
